Screening data, single-dose tests

Sequences of proteins named here, by UniProt entry; tags and fusion partners are left off. Residues count along the entry.
UniProt I6X8D2, whole entry: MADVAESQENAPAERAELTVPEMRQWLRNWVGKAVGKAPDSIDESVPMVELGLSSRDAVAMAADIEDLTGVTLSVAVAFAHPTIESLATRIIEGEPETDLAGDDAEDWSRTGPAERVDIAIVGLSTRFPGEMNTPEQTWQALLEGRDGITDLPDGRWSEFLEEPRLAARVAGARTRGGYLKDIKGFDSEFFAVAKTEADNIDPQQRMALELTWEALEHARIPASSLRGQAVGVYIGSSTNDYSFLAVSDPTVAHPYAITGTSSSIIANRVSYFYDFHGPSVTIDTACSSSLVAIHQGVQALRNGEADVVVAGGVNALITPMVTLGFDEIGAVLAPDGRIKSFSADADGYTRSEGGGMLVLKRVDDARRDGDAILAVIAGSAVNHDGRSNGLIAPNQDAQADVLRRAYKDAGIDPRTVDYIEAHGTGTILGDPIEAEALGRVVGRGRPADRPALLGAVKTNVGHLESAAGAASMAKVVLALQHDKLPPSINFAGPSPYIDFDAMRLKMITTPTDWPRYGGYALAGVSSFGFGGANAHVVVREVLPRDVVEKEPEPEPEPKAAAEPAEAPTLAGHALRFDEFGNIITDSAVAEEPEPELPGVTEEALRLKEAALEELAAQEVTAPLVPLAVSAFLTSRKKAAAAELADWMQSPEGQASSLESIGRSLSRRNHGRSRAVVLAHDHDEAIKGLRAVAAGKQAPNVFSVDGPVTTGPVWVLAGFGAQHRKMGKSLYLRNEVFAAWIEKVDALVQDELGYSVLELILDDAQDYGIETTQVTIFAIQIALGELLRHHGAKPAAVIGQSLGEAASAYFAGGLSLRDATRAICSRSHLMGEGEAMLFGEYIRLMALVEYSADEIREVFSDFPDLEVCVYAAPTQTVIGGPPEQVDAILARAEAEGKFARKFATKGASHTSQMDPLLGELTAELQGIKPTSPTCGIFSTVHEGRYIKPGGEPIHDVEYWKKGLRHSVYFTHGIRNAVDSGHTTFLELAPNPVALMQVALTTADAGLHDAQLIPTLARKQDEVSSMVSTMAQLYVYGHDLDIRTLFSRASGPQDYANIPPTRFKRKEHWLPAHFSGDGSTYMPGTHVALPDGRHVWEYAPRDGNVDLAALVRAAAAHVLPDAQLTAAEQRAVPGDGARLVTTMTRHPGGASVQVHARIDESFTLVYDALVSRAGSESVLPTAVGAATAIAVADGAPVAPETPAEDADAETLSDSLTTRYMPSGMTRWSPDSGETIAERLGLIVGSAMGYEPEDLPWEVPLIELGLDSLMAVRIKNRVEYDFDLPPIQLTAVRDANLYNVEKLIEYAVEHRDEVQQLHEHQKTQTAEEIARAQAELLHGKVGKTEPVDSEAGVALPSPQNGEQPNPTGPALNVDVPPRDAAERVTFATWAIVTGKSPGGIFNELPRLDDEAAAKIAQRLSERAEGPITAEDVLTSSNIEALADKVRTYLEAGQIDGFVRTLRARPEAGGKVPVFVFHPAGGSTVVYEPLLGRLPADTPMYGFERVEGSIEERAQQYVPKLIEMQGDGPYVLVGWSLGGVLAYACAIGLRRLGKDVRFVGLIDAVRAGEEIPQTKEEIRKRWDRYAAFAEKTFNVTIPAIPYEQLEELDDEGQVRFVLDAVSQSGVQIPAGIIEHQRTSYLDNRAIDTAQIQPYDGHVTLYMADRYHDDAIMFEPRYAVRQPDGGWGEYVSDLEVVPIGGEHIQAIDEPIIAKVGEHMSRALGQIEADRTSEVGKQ
UniProt Q4DA54, 1-478: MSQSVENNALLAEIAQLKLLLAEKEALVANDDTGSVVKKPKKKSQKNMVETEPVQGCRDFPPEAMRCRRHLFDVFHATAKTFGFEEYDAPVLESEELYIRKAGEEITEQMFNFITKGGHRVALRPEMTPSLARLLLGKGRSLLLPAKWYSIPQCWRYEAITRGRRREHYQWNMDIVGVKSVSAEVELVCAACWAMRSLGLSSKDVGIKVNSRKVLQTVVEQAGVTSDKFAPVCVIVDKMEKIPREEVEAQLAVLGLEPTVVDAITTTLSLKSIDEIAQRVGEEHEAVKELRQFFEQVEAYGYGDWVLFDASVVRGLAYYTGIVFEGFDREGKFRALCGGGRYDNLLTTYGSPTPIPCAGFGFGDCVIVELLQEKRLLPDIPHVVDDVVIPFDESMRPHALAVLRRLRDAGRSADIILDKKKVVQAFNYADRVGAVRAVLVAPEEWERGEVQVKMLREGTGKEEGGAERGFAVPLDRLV
UniProt P9WFT3, whole entry: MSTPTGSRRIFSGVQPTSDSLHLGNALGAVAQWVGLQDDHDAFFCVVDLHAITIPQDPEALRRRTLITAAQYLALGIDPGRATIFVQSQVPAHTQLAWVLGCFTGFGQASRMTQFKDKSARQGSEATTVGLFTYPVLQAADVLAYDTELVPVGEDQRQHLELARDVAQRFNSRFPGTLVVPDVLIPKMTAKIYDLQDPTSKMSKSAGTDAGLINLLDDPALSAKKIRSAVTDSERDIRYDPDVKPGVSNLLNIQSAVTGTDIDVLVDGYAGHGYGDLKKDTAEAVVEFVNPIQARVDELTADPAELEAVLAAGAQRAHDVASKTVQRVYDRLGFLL
UniProt P9WPC5, whole entry: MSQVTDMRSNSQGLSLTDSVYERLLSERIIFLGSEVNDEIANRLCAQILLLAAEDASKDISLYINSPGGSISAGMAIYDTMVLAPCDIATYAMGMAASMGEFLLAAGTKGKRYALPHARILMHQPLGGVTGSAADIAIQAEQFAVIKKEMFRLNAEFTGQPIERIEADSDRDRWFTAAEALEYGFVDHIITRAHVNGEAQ
UniProt P9WPC3, whole entry partner: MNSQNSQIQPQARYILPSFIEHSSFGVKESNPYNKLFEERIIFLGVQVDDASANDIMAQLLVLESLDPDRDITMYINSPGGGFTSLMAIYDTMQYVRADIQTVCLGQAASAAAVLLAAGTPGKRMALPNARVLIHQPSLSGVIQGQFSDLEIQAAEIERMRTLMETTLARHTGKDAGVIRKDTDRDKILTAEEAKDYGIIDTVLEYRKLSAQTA

From ChEMBL document CHEMBL3988442, “University of Dundee, Small-Polar-MMV Screening Library” (2021).

Pks13 thioesterase: 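Polyketide synthase Pks13, Mycobacterium tuberculosis (UniProt I6X8D2). Enzyme assay of the thioesterase domain of polyketide synthase 13; the read-out is not stated. Compounds at 30 µM. Higher reads as stronger inhibition (inferred from which compounds were picked for retests). Size under these conditions: about 67,000 compounds, about 300 of them at 50% or above in at least one test.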
TcHisRS: 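Histidine-tRNA ligase, Trypanosoma cruzi CL Brener (UniProt Q4DA54). Enzyme assay of histidyl-tRNA synthetase; the read-out is not stated. Compounds at 30 µM. Direction is inferred from retests: higher values go with stronger inhibition. About 69,000 compounds were tested under these conditions; 0.045% (about 31) showed 50% or more at least once.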
MtTrpRS: 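Enzyme assay of tryptophanyl-tRNA synthetase; the read-out is not stated. Target: Tryptophan-tRNA ligase, Mycobacterium tuberculosis (UniProt P9WFT3). Tested at 10 µM. Higher most likely means stronger inhibition; the record gives no direction and few retests gave an IC50. Size under these conditions: about 65,000 compounds, about 64 of them at 50% or above in at least one test.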
ClpP1P2: 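ClpP1P2, Mycobacterium tuberculosis (UniProt P9WPC5 and UniProt P9WPC3). Protease assay of ClpP1P2, read by the AMC dye that it sets free. Concentration: 50 µM. Direction is inferred from only a few compounds that gave an IC50; most scored high, so higher reads as stronger inhibition. Most other retested compounds had strongly negative values. About 69,000 compounds were tested under these conditions; 0.015% (about 10) showed 50% or more at least once.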

Values are the deposited “Percent Effect”, in %. How 0% and 100% were set is not recorded. Most values in the screen are low, and negative values occur. This is an unselected part of the compounds tested. A dash means the value is not listed here; it may have been measured.

| # | structure | Pks13 thioesterase | TcHisRS | MtTrpRS | ClpP1P2 |
|---|---|---|---|---|---|
| 1 | `Cc1ccccc1CC(=O)N[C@@H]1CCC[C@@H](N2CCNC(=O)C2)[C@@H]1O` | 9.687% | 1.493% | 0.4058% | 2.52% |
| 2 | `CN(CC(=O)N1CC(C)(C)[C@](O)(C2CC2)C1)Cc1cccnc1` | -31.66% | 6.897% | 1.521% | -1.402% |
| 3 | `Cn1c(Cn2ccnc2)nnc1C1CCN(C(=O)c2ccccn2)CC1` | 0.5651% | 9.045% | 3.239% | 8.745% |
| 4 | `COc1ccc(C(C)N2CCN(Cc3nccn3C)CC2)cc1Cl` (stereo not shown) | -20.63% | 9.924% | -0.07993% | 1.071% |
| 5 | `CCN(CC)c1ccc(C(=O)N(C)Cc2c(C)noc2C)cn1` | -9.788% | 1.515% | -3.216% | -5.459% |
| 6 | `CN1CCN(C[C@@H]2CN(C(=O)CCc3cn[nH]c3)C[C@@H]2CO)CC1` | -29.78% | -0.5236% | -2.314% | -12.74% |
| 7 | `CN(C)CC1CN(C(=O)NCc2ccccc2)Cc2nccn2C1` (stereo not shown) | -19.43% | 4.959% | 2.385% | 0.2402% |
| 8 | `CC(C)N1CCC(c2cc(C(F)(F)F)n3ccnc3n2)CC1` | -6.587% | 4.396% | - | -81.52% |
| 9 | `Cc1ccc(OCCN2CCN(Cc3cnn(CCO)c3)CC2)cc1` | -9.731% | 6.122% | -5.322% | -12.29% |
| 10 | `CSc1c[nH]nc1NS(=O)(=O)c1ccc(C)c(C)c1` | -15.82% | 2.128% | -4.823% | -2.351% |
| 11 | `Cc1cnc2c(C(=O)N3CCCC(OCc4ccccn4)C3)cnn2c1` (stereo not shown) | 81.52% | 2.609% | 2.78% | 2.684% |
| 12 | `CCOCCNC(=O)c1ccc(OC)cc1I` | -16.5% | 10.88% | -0.25% | 4.298% |
| 13 | `N#Cc1cccc(NC(=O)N(CC(F)F)C2CC2)c1` | 2.852% | 13.33% | 4.127% | 3.426% |
| 14 | `O=C(COc1cccc2c1CCC2=O)NCC(F)(F)F` | 2.423% | 10% | 3.838% | 5.296% |
| 15 | `Cc1ccoc1-c1nnc(CN2CCn3c(C)nnc3C2)o1` | -8.417% | 3.39% | -2.563% | -18.28% |
| 16 | `C[C@@]1(O)CCN(Cc2cc[nH]n2)C[C@H]1Oc1cccc(F)c1` | -5.088% | 12.09% | - | -4.129% |
| 17 | `Cc1nc(N(C)C)cc(C2(C)CCNCC2)n1` | 1.117% | 1.538% | -2.106% | 0.2717% |
| 18 | `COc1ccc(C(C(=O)O)N(C)Cc2ccon2)cc1Cl` (stereo not shown) | -5.65% | -1.064% | 2.437% | -5.889% |
| 19 | `CC(=O)N1CCCC1c1nnn2cc(NCc3cccnc3)ccc12` (stereo not shown) | -45.54% | 3.226% | 3.586% | 2.209% |
| 20 | `CC(C)[C@@H]1CN(Cc2cnc3c(S(C)(=O)=O)cnn3c2)C[C@H]1N(C)C` | 12.6% | 8.642% | -0.2467% | -5.735% |
| 21 | `CCN1CCN(Cc2ccnc(-c3cccnc3)n2)CC1` | -18.92% | 0.5405% | 5.769% | -3.142% |
| 22 | `CC(=O)N1CCC(N[C@@H]2CC[C@@H]2NS(=O)(=O)c2cccnc2)CC1` | 3.056% | 2.89% | -2.21% | 1.253% |
| 23 | `Cc1nc(C(C)NCc2cc(O)c3cccc(F)c3n2)cs1` (stereo not shown) | -16.12% | 1.657% | -4.644% | -7.08% |
| 24 | `Cn1ccnc1C1CCCN(C(=O)c2cc(F)cc(F)c2)C1` (stereo not shown) | -8.979% | 5.051% | 1.29% | -7.049% |
| 25 | `CCOc1cccc(CNc2cccc(C(=O)OC)c2)c1O` | 29.33% | 1.754% | -0.7703% | -8.962% |
| 26 | `CCOC(=O)N1CCN(C(=O)c2snnc2-c2ccc(OC)cc2)CC1` | -0.896% | -1.031% | 0.6159% | 4.936% |
| 27 | `COCC(=O)N[C@H](C)c1c(-c2ccc(Cl)cc2)noc1C(=O)O` | -28.94% | 3.96% | 3.238% | -1.65% |
| 28 | `N#CCCCOc1cccc(CN2CCCC2c2ccc[nH]2)c1` (stereo not shown) | -18.02% | 12.5% | -4.438% | 7.237% |
| 29 | `CSC(C)C(=O)N(C)CCCc1cc(-c2ccccc2)no1` (stereo not shown) | -14.15% | 2.041% | -36.67% | -10.56% |
| 30 | `CCCc1n[nH]c(C2CN(C(=O)c3ccc(C)[nH]c3=O)CCO2)n1` (stereo not shown) | 13.46% | 2.312% | 18.12% | -15.3% |
| 31 | `O=C1CO[C@H]2CN(S(=O)(=O)c3ccccc3)C[C@H]2N1Cc1ccccc1` | -36.35% | 8.911% | 0.3765% | -13.97% |
| 32 | `CN1CCC(c2cccc(-c3ccc(C(=O)O)cc3)n2)CC1` | 2.8% | 2.632% | -0.8587% | -14.44% |
| 33 | `O=C1NC2(CCN(Cc3ccoc3)CC2)CC1c1ccncc1` (stereo not shown) | 0.4193% | 9.091% | -5.58% | 3.284% |
| 34 | `Cn1nc(Cn2ccnc2)c2c1CN(C(=O)c1ccoc1)C2` | -34.87% | 13.27% | -2.35% | 9.022% |
| 35 | `Cc1nccc(C2CCCCN2Cc2cccc(F)c2)n1` (stereo not shown) | 4.334% | 4.563% | -1.725% | -0.6403% |
| 36 | `O=C(NC1CCN(c2ncccn2)CC1)c1cc2c([nH]c1=O)CCC2` | -17.23% | 7.843% | -3.981% | -1.799% |
| 37 | `COc1c(CNCc2ccnc(N3CCOCC3)c2)c(C)nn1C` | -12.4% | 2.817% | 0.5112% | -5.162% |
| 38 | `Cc1cc(CN2C[C@@H]3COC[C@]3(CNC(=O)c3ccsc3)C2)no1` | -1.209% | 0.8264% | -1.918% | 5.506% |
| 39 | `Cc1cn2c(n1)CCC(NC(=O)CCn1ccnn1)C2` (stereo not shown) | -8.171% | 2.273% | -2.632% | -10.98% |
| 40 | `O=C1COC2(CCN(Cc3nccs3)CC2)CN1CC1CC1` | 0.4238% | 2.151% | 11.87% | 1.485% |
| 41 | `COc1ccc(C(=O)N2C[C@@H](O)[C@H](NCc3cnc(C)cn3)C2)cc1` | -0.09424% | 14.07% | 1.665% | 22.42% |
| 42 | `COc1c(C2CCCN2Cc2csc(C(C)C)n2)c(C)nn1C` (stereo not shown) | -19.02% | -2.29% | -2.958% | 18.55% |
| 43 | `CN1[C@@H](c2ccccc2)[C@@H](C(=O)NCC2CCOCC2)C[C@@]1(C)C(=O)O` | -15.5% | 6.358% | 2.094% | -9.579% |
| 44 | `Cn1cc(CN(C(=O)c2ccc3ncsc3c2)C2CC2)cn1` | 6.44% | 7.463% | 0.153% | 8.583% |
| 45 | `CCc1ncnc2c1CCN(C(=O)N1CCCC1)CC2` | -18.24% | 7.027% | 7.87% | -2.065% |
| 46 | `CNc1ncc(C(=O)N2CCC3(CC2)Nc2ccccc2NC3=O)cn1` | -0.1284% | 5.528% | -2.391% | -11.38% |
| 47 | `CC1(C)CC(=O)c2cnc3nc(N4CCOCC4)nc(O)c3c2C1` | 2.892% | 10.31% | -1.078% | -24.68% |
| 48 | `CCN(CC)C(=O)[C@@H]1C[C@H](NC(=O)c2cccn2C(C)C)CN1C` | -9.398% | 5.063% | -0.3425% | -8.892% |
| 49 | `Cc1nc(CO[C@@H]2CN(Cc3cccs3)[C@@H]3COC[C@@H]32)cs1` | -0.3024% | 5.263% | -1.351% | -5.574% |
| 50 | `CCCNC(=O)c1sccc1N(C)S(=O)(=O)c1ccc(Cl)cc1` | -42.19% | -5.435% | 3.072% | 14.13% |
| 51 | `CC(C)CN1CCN(C(=O)c2cc(=O)c3ccccc3[nH]2)CC1` | -2.57% | 5% | 0.9893% | -11.34% |
| 52 | `NC(=O)c1ccc(CNC(=O)Nc2cn[nH]c2)cc1` | -24.19% | -7.018% | 13.28% | -10.62% |
| 53 | `Cc1noc(C)c1CN1CCC2(CC1)C(c1cnn(C)c1)CC(=O)N2C` (stereo not shown) | -0.6288% | 10.58% | - | 1.698% |
| 54 | `O=C(NCCNc1cnccn1)N1CCN(c2nccs2)CC1` | 1.86% | 4.871% | -0.7099% | -9.616% |
| 55 | `N#Cc1cc(N2CCC(CS(N)(=O)=O)CC2)c2ccccc2n1` | 6.565% | 7.407% | 2.564% | -4.011% |
| 56 | `Cc1ncc(S(C)(=O)=O)c(C2CCCNC2)n1` (stereo not shown) | 25.32% | 6.612% | -2.256% | 3.693% |
| 57 | `COc1cccc(OC2CN(C(=O)CCn3cnc4ccccc43)C2)c1` | -1.568% | 3.614% | -7.676% | 10.53% |
| 58 | `CCNC(=O)N1CC(c2nc(Cc3ccccc3)no2)C1` | -14.22% | 3.061% | 3.597% | -2.401% |
| 59 | `CN(Cc1cnn(C)c1)C(=O)CCc1ccc2c(c1)OCO2` | -3.284% | 0.6135% | 3.728% | -9.553% |
| 60 | `COc1cccc2c1OCC(C(=O)NCCc1nnc(C)s1)C2` (stereo not shown) | -11.13% | 7.831% | 1.722% | -8.433% |
| 61 | `CC(C)C(C)(C#N)NC(=O)Cn1cc(I)cn1` (stereo not shown) | 5.114% | 1.734% | -2.387% | -10.89% |
| 62 | `O=C1C(NS(=O)(=O)c2ccc(F)cc2F)CCN1Cc1ccccc1` (stereo not shown) | -3.589% | 4.571% | -0.6877% | -7.643% |
| 63 | `COCCN1CCC(NC(=O)Nc2cccc(F)c2)C1` (stereo not shown) | -3.886% | 3.093% | -5.247% | -13.57% |
| 64 | `O=S(=O)(NCCCn1cncn1)c1ccc2c(c1)CCO2` | -5.265% | 6.087% | 3.635% | -0.6036% |
| 65 | `Cc1cnn(CC2CCCCN2C(=O)c2cc(C(N)=O)cs2)c1` (stereo not shown) | -9.331% | 4.887% | -4.191% | 1.057% |
| 66 | `CC(C)Sc1ncccc1C(=O)NCc1cccc(N(C)C)c1` | -4.469% | 2.579% | 2.603% | 7.123% |
| 67 | `Cc1ccc(CNc2ccc(C(=O)N3CCNC(=O)C3)cn2)cc1` | 6.74% | 5.882% | -0.3666% | -2.999% |
| 68 | `O=C(CCn1cncn1)NC1CCS(=O)(=O)C1` (stereo not shown) | -0.1254% | 5.747% | -4.562% | -7.6% |

The last 6 entries again:

| structure | Pks13 thioesterase | TcHisRS | MtTrpRS | ClpP1P2 |
|---|---|---|---|---|
| `COCCN1CCC(NC(=O)Nc2cccc(F)c2)C1` (stereo not shown) | -3.886% | 3.093% | -5.247% | -13.57% |
| `O=S(=O)(NCCCn1cncn1)c1ccc2c(c1)CCO2` | -5.265% | 6.087% | 3.635% | -0.6036% |
| `Cc1cnn(CC2CCCCN2C(=O)c2cc(C(N)=O)cs2)c1` (stereo not shown) | -9.331% | 4.887% | -4.191% | 1.057% |
| `CC(C)Sc1ncccc1C(=O)NCc1cccc(N(C)C)c1` | -4.469% | 2.579% | 2.603% | 7.123% |
| `Cc1ccc(CNc2ccc(C(=O)N3CCNC(=O)C3)cn2)cc1` | 6.74% | 5.882% | -0.3666% | -2.999% |
| `O=C(CCn1cncn1)NC1CCS(=O)(=O)C1` (stereo not shown) | -0.1254% | 5.747% | -4.562% | -7.6% |